No constants are given. Whether binding was seen depends on the method and setting. For some of these results: In cells and extracts the contact can be indirect. Some binding calls cover weakened binding; strength is not graded here. Each block holds one molecule with its values, some of them ahead of it.
Key:
[1] = biological target: human NLR family CARD domain containing 4 (NLRC4) (human) (UniProt Q9NPP4); experiment: proximity ligation assay (PLA) on human donor-eye tissue sections
[2] = biological target: mouse NLR family CARD domain containing 4 (Nlrc4) (mouse) (UniProt Q3UP24); experiment: immunofluorescence colocalization in Alu RNA-treated mouse BMDMs
[3] = biological target: mouse NLR family CARD domain containing 4 (Nlrc4) (mouse) (UniProt Q3UP24); experiment: fluorescent staining, colocalization of endogenous proteins in Alu RNA-treated BMDM
[4] = biological target: human DEAD-box helicase 17 (DDX17) (human) (UniProt Q92841); experiment: proximity ligation assay (PLA) on human AMD tissue

The chains behind the UniProt entries cited, without tags or fusion partners. Where a name states a change or a piece, a line headed by the entry shows the natural chain unless it says otherwise.
UniProt Q3UP24: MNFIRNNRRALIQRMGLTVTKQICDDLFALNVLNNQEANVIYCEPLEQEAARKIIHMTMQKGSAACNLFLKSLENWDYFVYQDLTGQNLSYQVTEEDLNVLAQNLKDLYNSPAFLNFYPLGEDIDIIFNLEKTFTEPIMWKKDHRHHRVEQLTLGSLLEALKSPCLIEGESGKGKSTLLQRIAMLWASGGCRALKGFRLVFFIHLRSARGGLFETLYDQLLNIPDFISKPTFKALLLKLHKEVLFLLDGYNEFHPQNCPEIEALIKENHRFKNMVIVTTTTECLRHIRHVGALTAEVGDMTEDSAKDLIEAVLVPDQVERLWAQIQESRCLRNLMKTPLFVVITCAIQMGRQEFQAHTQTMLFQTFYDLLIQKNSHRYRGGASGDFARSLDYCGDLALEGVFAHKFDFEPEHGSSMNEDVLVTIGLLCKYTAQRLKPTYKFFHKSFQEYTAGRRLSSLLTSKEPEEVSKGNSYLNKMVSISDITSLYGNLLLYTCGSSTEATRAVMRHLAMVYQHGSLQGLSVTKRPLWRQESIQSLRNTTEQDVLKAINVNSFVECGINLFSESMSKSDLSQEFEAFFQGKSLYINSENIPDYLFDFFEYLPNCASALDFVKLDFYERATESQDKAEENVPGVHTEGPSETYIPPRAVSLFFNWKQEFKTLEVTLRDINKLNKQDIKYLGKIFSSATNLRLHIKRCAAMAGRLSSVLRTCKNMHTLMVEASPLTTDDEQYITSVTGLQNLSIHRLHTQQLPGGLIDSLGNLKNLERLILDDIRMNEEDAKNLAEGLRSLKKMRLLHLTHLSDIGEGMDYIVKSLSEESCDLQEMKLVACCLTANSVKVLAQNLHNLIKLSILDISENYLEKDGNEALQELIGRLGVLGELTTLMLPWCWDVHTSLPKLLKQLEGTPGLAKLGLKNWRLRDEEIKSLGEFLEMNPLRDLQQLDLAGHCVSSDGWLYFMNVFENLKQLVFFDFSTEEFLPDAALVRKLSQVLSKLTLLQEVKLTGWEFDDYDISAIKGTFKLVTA
UniProt Q92841: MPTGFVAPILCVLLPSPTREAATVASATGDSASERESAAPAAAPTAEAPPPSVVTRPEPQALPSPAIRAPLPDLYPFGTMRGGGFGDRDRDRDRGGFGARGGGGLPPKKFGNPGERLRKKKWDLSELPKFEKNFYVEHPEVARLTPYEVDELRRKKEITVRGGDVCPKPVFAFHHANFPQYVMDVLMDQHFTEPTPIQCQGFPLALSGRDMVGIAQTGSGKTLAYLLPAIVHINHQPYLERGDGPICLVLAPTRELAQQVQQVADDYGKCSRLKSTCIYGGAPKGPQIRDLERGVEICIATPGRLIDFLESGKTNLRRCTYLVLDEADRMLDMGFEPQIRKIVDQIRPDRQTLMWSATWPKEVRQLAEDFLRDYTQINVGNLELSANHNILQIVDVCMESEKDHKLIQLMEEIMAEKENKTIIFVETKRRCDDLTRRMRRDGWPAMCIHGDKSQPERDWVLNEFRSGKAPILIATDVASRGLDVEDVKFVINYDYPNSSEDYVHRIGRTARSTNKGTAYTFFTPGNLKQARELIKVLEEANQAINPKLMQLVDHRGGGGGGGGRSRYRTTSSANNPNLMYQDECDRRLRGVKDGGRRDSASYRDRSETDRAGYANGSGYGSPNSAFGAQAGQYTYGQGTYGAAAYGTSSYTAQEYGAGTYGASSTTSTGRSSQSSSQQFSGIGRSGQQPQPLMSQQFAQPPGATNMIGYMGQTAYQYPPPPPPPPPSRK
UniProt Q501J6: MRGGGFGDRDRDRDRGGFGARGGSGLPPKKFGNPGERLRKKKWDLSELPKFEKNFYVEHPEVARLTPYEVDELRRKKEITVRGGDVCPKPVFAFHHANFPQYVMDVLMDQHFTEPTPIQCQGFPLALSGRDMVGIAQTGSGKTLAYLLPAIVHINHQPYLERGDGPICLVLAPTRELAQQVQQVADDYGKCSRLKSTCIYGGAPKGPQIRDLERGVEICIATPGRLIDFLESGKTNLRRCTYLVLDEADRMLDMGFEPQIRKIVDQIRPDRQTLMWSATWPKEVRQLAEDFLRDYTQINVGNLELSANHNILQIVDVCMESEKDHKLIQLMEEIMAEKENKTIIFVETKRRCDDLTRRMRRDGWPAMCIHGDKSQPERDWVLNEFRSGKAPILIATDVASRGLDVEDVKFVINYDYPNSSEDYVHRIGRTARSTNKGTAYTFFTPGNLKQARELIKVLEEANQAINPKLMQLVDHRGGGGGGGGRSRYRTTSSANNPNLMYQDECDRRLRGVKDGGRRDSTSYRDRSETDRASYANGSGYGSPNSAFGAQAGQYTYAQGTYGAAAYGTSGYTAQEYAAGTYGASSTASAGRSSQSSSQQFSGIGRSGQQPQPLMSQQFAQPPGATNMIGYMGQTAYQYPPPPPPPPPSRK

binding [1]: binds
Molecule: human DEAD-box helicase 17 (DDX17) (from UniProt Q92841 2-729) (enzyme)

binding [2]: binds
binding [3]: binds
Molecule: mouse DEAD-box helicase 17 (Ddx17) (from UniProt Q501J6 1-650) (enzyme)

binding [4]: binds
B1: human NLR family CARD domain containing 4 (NLRC4) (receptor)
chain: MNFIKDNSRALIQRMGMTVIKQITDDLFVWNVLNREEVNIICCEKVEQDAARGIIHMILKKGSESCNLFLKSLKEWNYPLFQDLNGQSLFHQTSEGDLDDLAQDLKDLYHTPSFLNFYPLGEDIDIIFNLKSTFTEPVLWRKDQHHHRVEQLTLNGLLQALQSPCIIEGESGKGKSTLLQRIAMLWGSGKCKALTKFKFVFFLRLSRAQGGLFETLCDQLLDIPGTIRKQTFMAMLLKLRQRVLFLLDGYNEFKPQNCPEIEALIKENHRFKNMVIVTTTTECLRHIRQFGALTAEVGDMTEDSAQALIREVLIKELAEGLLLQIQKSRCLRNLMKTPLFVVITCAIQMGESEFHSHTQTTLFHTFYDLLIQKNKHKHKGVAASDFIRSLDHCGDLALEGVFSHKFDFELQDVSSVNEDVLLTTGLLCKYTAQRFKPKYKFFHKSFQEYTAGRRLSSLLTSHEPEEVTKGNGYLQKMVSISDITSTYSSLLRYTCGSSVEATRAVMKHLAAVYQHGCLLGLSIAKRPLWRQESLQSVKNTTEQEILKAININSFVECGIHLYQESTSKSALSQEFEAFFQGKSLYINSGNIPDYLFDFFEHLPNCASALDFIKLDFYGGAMASWEKAAEDTGGIHMEEAPETYIPSRAVSLFFNWKQEFRTLEVTLRDFSKLNKQDIRYLGKIFSSATSLRLQIKRCAGVAGSLSLVLSTCKNIYSLMVEASPLTIEDERHITSVTNLKTLSIHDLQNQRLPGGLTDSLGNLKNLTKLIMDNIKMNEEDAIKLAEGLKNLKKMCLFHLTHLSDIGEGMDYIVKSLSSEPCDLEEIQLVSCCLSANAVKILAQNLHNLVKLSILDLSENYLEKDGNEALHELIDRMNVLEQLTALMLPWGCDVQGSLSSLLKHLEEVPQLVKLGLKNWRLTDTEIRILGAFFGKNPLKNFQQLNLAGNRVSSDGWLAFMGVFENLKQLVFFDFSTKEFLPDPALVRKLSQVLSKLTFLQEARLVGWQFDDDDLSVITGAFKLVTA
notes: Endogenous protein of human RPE cells and of human donor eyes

From patent publication US20220280543A1, “DDX17 AND NLRC4 TARGETING FOR INFLAMMATORY DISEASES” (University of Virginia Patent Foundation, priority 2019, published 2022)
